Taken from: PubChem BioAssay AID1224826 (NIAID, 2016)
Screen: 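Genes that change LPS-induced Tnf promoter activity in mouse macrophages when knocked down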 (primary screen). Cell system: RAW264.7 G9 macrophages from mouse bearing reporters for p65 (GFP) and the Tnf promoter (mCherry). Reagents: siRNA pool against mouse genes, 100 nM. Timing: 16 h of LPS stimulation, after 2 days of siRNA transfection. Treatment: bacterial lipopolysaccharide (Salmonella minnesota R595), 10 ng/ml. Measurement: 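Nuclear mCherry signal of the Tnf promoter reporter measured by imaging after background removal, scaled to each plate median and turned into robust z-scores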. Scale: Tnf reporter robust z-score: higher = stronger Tnf promoter reporter signal after LPS. Call rule: 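Called active when robust z-score is at most -1.3, matching the median of the Tlr4 knock-down control, or over 3; control wells and wells with under 50 cells never active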. Calls: active = Tnf reporter clearly lowered or raised; inactive = no clear change in Tnf reporter.
The whole screen tested about 17,000 reagents; this is a random part of them. Of all reagents, about 1,110 (6.6%) were called active. 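Active means lowered or raised reporter signal; replicate intensities are raw and not normalised per plate.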 A number with no mark means an inactive call. Further read-outs or replicates are left out here.

no.	gene knocked down	Tnf reporter robust z-score	fewer than 50 cells in well
1	Qser1 (GeneID 99003)	-0.5	enough cells in well
2	Serpinb3c (GeneID 381286)	0.84	enough cells in well
3	Cyp3a11 (GeneID 13112)	-0.48	enough cells in well
4	Gpr34 (GeneID 23890)	-0.53	enough cells in well
5	Klf2 (GeneID 16598)	-0.53	enough cells in well
6	Mettl16 (GeneID 67493)	-0.1	enough cells in well
7	Klf13 (GeneID 50794)	0.05	enough cells in well
8	Gml2 (GeneID 15202)	-0.94	enough cells in well
9	Osr2 (GeneID 107587)	1.33	enough cells in well
10	Ces1f (GeneID 234564)	0.37	enough cells in well
11	Gcat (GeneID 26912)	1.3	enough cells in well
12	Reep4 (GeneID 72549)		fewer than 50 cells per well; well left out of calls
13	Tas1r2 (GeneID 83770)	-0.36	enough cells in well
14	Cox8b (GeneID 12869)	-0.65	enough cells in well
15	Smad4 (GeneID 17128)	-0.67	enough cells in well
16	Rnf135 (GeneID 71956)		fewer than 50 cells per well; well left out of calls
17	Abhd16b (GeneID 241850)		fewer than 50 cells per well; well left out of calls
18	Gsx1 (GeneID 14842)	-0.52	enough cells in well
19	Dnajb7 (GeneID 57755)	-0.75	enough cells in well
20	Pate4 (GeneID 56872)		fewer than 50 cells per well; well left out of calls
21	Eipr1 (GeneID 380752)	1.12	enough cells in well
22	Rps8 (GeneID 20116)	-1.31 (active)	enough cells in well
23	Tns1 (GeneID 21961)	-1.32 (active)	enough cells in well
24	A130004G07Rik (retired record) (GeneID 320687)	-0.58	enough cells in well
25	Ythdf2 (GeneID 213541)	-1.57 (active)	enough cells in well
26	Tmem203 (GeneID 227615)	1.31	enough cells in well
27	Depdc1a (GeneID 76131)	0.3	enough cells in well
28	Or1n2 (GeneID 258941)	-0.56	enough cells in well
29	Ncbp2 (GeneID 68092)	1.08	enough cells in well
30	Med11 (GeneID 66172)	3.65 (active)	enough cells in well
31	Il15ra (GeneID 16169)	-0.5	enough cells in well
32	Ttc41 (GeneID 103220)	-0.46	enough cells in well
33	Top3a (GeneID 21975)	1.25	enough cells in well
34	Adamdec1 (GeneID 58860)	-0.02	enough cells in well
35	Sumo1 (GeneID 22218)	-0.25	enough cells in well
36	Sun1 (GeneID 77053)	-0.91	enough cells in well
37	Cox6a2 (GeneID 12862)	-0.56	enough cells in well
38	Chst8 (GeneID 68947)	3.37 (active)	enough cells in well
39	Rpl38 (GeneID 67671)	-0.6	enough cells in well
40	Kcnq5 (GeneID 226922)	-0.1	enough cells in well
41	Foxf2 (GeneID 14238)	0.75	enough cells in well
42	Tbx1 (GeneID 21380)	-1.29	enough cells in well
43	Plcb2 (GeneID 18796)	-0.26	enough cells in well
44	Ly9 (GeneID 17085)	-0.65	enough cells in well
45	Lrrc19 (GeneID 100061)	3.76 (active)	enough cells in well
46	Ift57 (GeneID 73916)	-1.08	enough cells in well
47	Higd1a (GeneID 56295)	1.07	enough cells in well
48	Ndufb2 (GeneID 68198)	-0.3	enough cells in well
49	Agpat1 (GeneID 55979)	0.61	enough cells in well
50	Stx2 (GeneID 13852)	-0.39	enough cells in well
51	Or7g25 (GeneID 258560)		fewer than 50 cells per well; well left out of calls
52	Tbx2 (GeneID 21385)	-0.84	enough cells in well
53	Hap1 (GeneID 15114)	0.04	enough cells in well
54	Dlg4 (GeneID 13385)		fewer than 50 cells per well; well left out of calls
55	Tmem260 (GeneID 218989)	0.42	enough cells in well
56	Csnk2b (GeneID 13001)	-1.3 (active)	enough cells in well
57	Procr (GeneID 19124)	0.21	enough cells in well
58	B230354K17Rik (GeneID 105246278)	0.87	enough cells in well
59	Bfar (GeneID 67118)	-0.45	enough cells in well
60	Lpcat4 (GeneID 99010)	0.18	enough cells in well
61	Kbtbd2 (GeneID 210973)	0.54	enough cells in well
62	Bysl (GeneID 53414)	-0.49	enough cells in well
63	Tmem222 (GeneID 52174)	0.2	enough cells in well
64	Comt (GeneID 12846)	1.19	enough cells in well
65	Pan3 (GeneID 72587)	0.54	enough cells in well
66	Impdh1 (GeneID 23917)	0.33	enough cells in well
67	Ddx6 (GeneID 13209)	0.05	enough cells in well
68	Sdr16c5 (GeneID 242285)	2.36	enough cells in well
69	Gimap9 (GeneID 317758)	0.39	enough cells in well
70	Prkce (GeneID 18754)	-0.84	enough cells in well
71	Atad2 (GeneID 70472)	-0.39	enough cells in well
72	Vars2 (GeneID 68915)	0.76	enough cells in well
73	Phxr5 (GeneID 18690)	0.39	enough cells in well
74	Mup5 (GeneID 17844)	0.5	enough cells in well
75	Vmn2r57 (GeneID 269902)	0.37	enough cells in well

Quoted from the listing (7 entries):
no.	gene knocked down	Tnf reporter robust z-score	fewer than 50 cells in well
48	Ndufb2 (GeneID 68198)	-0.3	enough cells in well
49	Agpat1 (GeneID 55979)	0.61	enough cells in well
50	Stx2 (GeneID 13852)	-0.39	enough cells in well
51	Or7g25 (GeneID 258560)		fewer than 50 cells per well; well left out of calls
52	Tbx2 (GeneID 21385)	-0.84	enough cells in well
53	Hap1 (GeneID 15114)	0.04	enough cells in well
54	Dlg4 (GeneID 13385)		fewer than 50 cells per well; well left out of calls
